Measured values taken from patent US20140086961A1, “USE OF CYCLODEXTRINS IN DIETS, WATER OR VACCINE ADJUVANTS TO BOOST THE IMMUNE SYSTEM OF FISH” (priority 2011, published 2014).
Some results were stated once for a whole list of compounds, not compound by compound.

System: zebrafish larvae
Assay: LPS challenge of zebrafish larvae bathed with cyclodextrin
Assay type: in vivo
Conditions: zebrafish larvae 2 dpf, LPS 150 μg/mL Pseudomonas aeruginosa
Description: (§1) FIGS. 5A and 5B show replicates of the effects of α-cyclodextrin at various concentrations on LPS challenge. Zebrafish larvae, 2 days post-fertilization, were bathed with 0, 67.5, 125, 250 or 500 μg/mL of alpha cyclodextrin. Zebrafish larvae were then bathed with a lethal concentration (100% mortality) of LPS (150 μg/mL—Pseudomonas aeruginosa) and assessed for mortality over 36 hours. FIGS. 5A and 5B show the cumulative mortality after challenge of zebrafish larvae treated with α-cyclodextrin
as §1, with “6A” for “5A”, “6B” for “5B”, “β-cyclodextrin” for “α-cyclodextrin”, “challenge performed in replicate.” for “challenge.”, “beta” for “alpha”
To test this, zebrafish larvae, 2 days post fertilization (dpf), were bathed with 0, 67.5, 125, 250 or 500 μg/mL of beta or alpha cyclodextrin. Zebrafish larvae were then bathed with a lethal concentration (i.e., 100% mortality) of bacterial lipopolysaccharide (LPS) (150 μg/mL Pseudomonas aeurginosa). […]

Row | Compound | concentrations giving complete protection against LPS
1 | OC[C@H]1O[C@@H]2O[C@H]3[C@H](O)[C@@H](O)[C@@H](O[C@H]4[C@H](O)[C@@H](O)[C@@H](O[C@H]5[C@H](O)[C@@H](O)[C@@H](O[C@H]6[C@H](O)[C@@H](O)[C@@H](O[C@H]7[C@H](O)[C@@H](O)[C@@H](O[C@H]1[C@H](O)[C@H]2O)O[C@@H]7CO)O[C@@H]6CO)O[C@@H]5CO)O[C@@H]4CO)O[C@@H]3CO [alpha cyclodextrin] | 250 to 500 µg/mL
2 | OC[C@H]1O[C@@H]2O[C@H]3[C@H](O)[C@@H](O)[C@@H](O[C@H]4[C@H](O)[C@@H](O)[C@@H](O[C@H]5[C@H](O)[C@@H](O)[C@@H](O[C@H]6[C@H](O)[C@@H](O)[C@@H](O[C@H]7[C@H](O)[C@@H](O)[C@@H](O[C@H]8[C@H](O)[C@@H](O)[C@@H](O[C@H]1[C@H](O)[C@H]2O)O[C@@H]8CO)O[C@@H]7CO)O[C@@H]6CO)O[C@@H]5CO)O[C@@H]4CO)O[C@@H]3CO [beta cyclodextrin] | 250 to 500 µg/mL
